# Results from the supplement of paper PMC12889115.
# Some of the results follow. These are raw signals, not scaled to a control.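 First-pass screen: polymyxin B was added at a level that permeabilizes the Salmonella outer membrane while sparing the inner membrane. DMSO wells, with and without polymyxin B, defined maximum growth. Because plates differed from one another, each plate's data were ranked separately and the compounds with the lowest OD600 were carried forward as hits.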
# System: Salmonella enterica serovar Typhimurium SL1344
# Experiment: bacterial growth OD600 after 18 h with compound and polymyxin B; higher = more bacterial growth (less inhibition)
# Conditions: 50 µM, Mueller-Hinton broth
structure (smiles),measurement,setting,value
COC(=O)[C@@H]1CCCN1C(=O)Cc1ccc(N2CCC(NCCSc3nccn3C)CC2)cc1,bacterial growth OD600,polymyxin B 0.75 µg/mL,0.908
COc1ccccc1C1CN(CC(=O)NCc2cccc(F)c2F)Cc2ccccc2O1 (stereo unspecified),bacterial growth OD600,polymyxin B 0.75 µg/mL,0.6
CCCCn1c(CN(C)Cc2cccc(OC)c2)cnc1S(=O)(=O)CC1CCC1,bacterial growth OD600,polymyxin B 1 µg/mL,0.017
O=C(CCC1(Cc2ccco2)CCC(=O)N1)NCc1ccc(F)cc1 (stereo unspecified),bacterial growth OD600,polymyxin B 0.75 µg/mL,0.86
OCC1(CCc2ccccc2)CCCN(Cc2ccc3c(c2)CCO3)C1 (stereo unspecified),bacterial growth OD600,polymyxin B 1 µg/mL,0.822
C=C(C)CN(CC)C(=O)CCc1nnc(CCc2ccc(OC)cc2)o1,bacterial growth OD600,polymyxin B 1 µg/mL,0.861
COc1ccccc1OCc1cc(C(=O)N2CCN(c3ccccc3)C(=O)C2)n[nH]1,bacterial growth OD600,polymyxin B 1 µg/mL,1.19
CCOC(=O)N1CCN(Cc2ccc3c(c2)CN(C(=O)CC2=CCCCC2)CCO3)CC1,bacterial growth OD600,polymyxin B 0.75 µg/mL,1.02
Cc1ccoc1C(=O)N1CCC(C2CCN(Cc3cccnc3)CC2)C1 (stereo unspecified),bacterial growth OD600,polymyxin B 0.75 µg/mL,0.882
CCOC(=O)C1(Cc2ccc(F)cc2)CCCN(C(=O)c2ccc(OC)cc2)C1 (stereo unspecified),bacterial growth OD600,polymyxin B 1 µg/mL,0.999
COCCC(=O)N1CCCC1C(=O)Nc1cccc(-c2cccc(C)c2)c1 (stereo unspecified),bacterial growth OD600,polymyxin B 1 µg/mL,0.888
COc1ccc(CNC(=O)CCC2CCCN(Cc3cccc(C)c3)C2)c(OC)c1 (stereo unspecified),bacterial growth OD600,polymyxin B 0.75 µg/mL,0.807
CCC(=O)C1CCCN(C(=O)CC2(c3ccccc3Cl)CC(=O)N(CCCOC)C2=O)C1 (stereo unspecified),bacterial growth OD600,polymyxin B 0.75 µg/mL,0.657
CC(=O)c1ccccc1-c1ccc2c(c1)CC(CNC(=O)Cc1ccccc1C)O2 (stereo unspecified),bacterial growth OD600,polymyxin B 0.75 µg/mL,0.005
Cc1ncsc1C(=O)N1CCCC(CNC(=O)c2ccc(-c3ccccc3)cc2)C1 (stereo unspecified),bacterial growth OD600,polymyxin B 1 µg/mL,0.926
O=C(Cn1nnnc1CN1CCCC1)NC(c1ccccc1)c1ccc(Cl)cc1 (stereo unspecified),bacterial growth OD600,polymyxin B 0.75 µg/mL,0.533
COC(=O)[C@@H]1CCCN1C(=O)Cc1ccc(N2CCC(NCCc3ccccn3)CC2)cc1,bacterial growth OD600,polymyxin B 0.75 µg/mL,0.961
O=C(c1ccc2c(c1)OCO2)C1CCCN(C(=O)c2csc(-c3cccs3)n2)C1 (stereo unspecified),bacterial growth OD600,polymyxin B 1 µg/mL,0
COc1cccc(-c2cn3c(C(=O)N4CCN(C)C(=O)[C@@H]4C)csc3n2)c1,bacterial growth OD600,polymyxin B 1 µg/mL,1.04
CN(C)c1ncccc1CNC(=O)Cn1ncc2ccccc21,bacterial growth OD600,polymyxin B 1 µg/mL,0.914
Cc1cc(Cl)c2oc(C(=O)N(C)CCCN3CCOCC3)c(C)c2c1,bacterial growth OD600,polymyxin B 1 µg/mL,0.96
COc1ccc(/C=C/C(=O)N2CCc3c(cnc(C)c3CNC(=O)c3cccs3)C2)cc1OC,bacterial growth OD600,polymyxin B 0.75 µg/mL,0.823
COc1cc(/C=C/CN2CCOc3ccc(C(O)Cc4ccccc4)cc3C2)ccc1O (stereo unspecified),bacterial growth OD600,polymyxin B 0.75 µg/mL,0.714
CC(=O)CCC(=O)N1CCC2(CCCN(Cc3ccc(F)cc3)C2)C1 (stereo unspecified),bacterial growth OD600,polymyxin B 1 µg/mL,0.984
O=C(c1ccc(N2CCC(NC(CCn3ccnc3)c3ccccc3)CC2)cc1)N1CCOCC1 (stereo unspecified),bacterial growth OD600,polymyxin B 0.75 µg/mL,0.804
COc1ccccc1CC(=O)NC1CCCc2nc(-c3ccccc3)ncc21 (stereo unspecified),bacterial growth OD600,polymyxin B 1 µg/mL,0.864
CN(Cc1cc(-c2ccccc2)on1)C(=O)CCC1(Cc2ccc3ccccc3c2)CCC(=O)N1 (stereo unspecified),bacterial growth OD600,polymyxin B 0.75 µg/mL,0.08
COc1ccc(OC)c(CNC2CCCc3nc(N(C)C)ncc32)c1 (stereo unspecified),bacterial growth OD600,polymyxin B 0.75 µg/mL,0.823
COC(=O)[C@@H]1CCCN1c1ccc(-c2nc(-c3ccccc3F)no2)cn1,bacterial growth OD600,polymyxin B 1 µg/mL,0.754
COc1ccc(CCNC2CCN(c3ccc(C(=O)NCCN4CCOCC4)cc3)CC2)c(OC)c1,bacterial growth OD600,polymyxin B 0.75 µg/mL,0.751
Cc1cc(C(=O)NC2CC(=O)N(Cc3ccccc3Cl)C2)nc(C)n1 (stereo unspecified),bacterial growth OD600,polymyxin B 1 µg/mL,0.851

# A stretch of the results above, for reference:
structure (smiles),measurement,setting,value
O=C(CCC1(Cc2ccco2)CCC(=O)N1)NCc1ccc(F)cc1 (stereo unspecified),bacterial growth OD600,polymyxin B 0.75 µg/mL,0.86
OCC1(CCc2ccccc2)CCCN(Cc2ccc3c(c2)CCO3)C1 (stereo unspecified),bacterial growth OD600,polymyxin B 1 µg/mL,0.822
